Data taken from PubChem BioAssay AID270 (DTP/NCI, 2004).
The list shows only some results of the screen, not a fair sample: it gathers tests that were run many times, whatever their T/C, doses with no T/C, and many T/C values between a quarter and a half above the control. Other doses and runs of a compound stand elsewhere. T/C: endpoint of the treated group in % of that of the vehicle group. Schedules are NCI's codes, taken here to give the interval after Q, in days (D) or hours (H), and the number of doses after X. Some T/C values carry the count of animals alive at the toxicity check (mostly the fifth day); where none is given, no animal had died by that day. Some entries give survivors of the animals treated and no T/C: the source holds a T/C of zero for them, seemingly a mark for toxic or unscored doses. Some survivor counts are full or nearly so, which does not show that the dose was tolerated: the source hardly ever lists a survival T/C far under the control, and the zero likely stands for such cases as well. Survivors were counted at the toxicity check, usually on the fifth day, unless a day is given; later deaths do not show. Some doses were run more than once; the values are given in rising order. For survival time, the PubChem record calls one and a half times the control and up active, and a quarter to a half above the control has no call in these data; cut-offs in other NCI protocols can differ. Signs of the kind (2×) count equal records among those shown.

System: BDF1 mice, s.c. Lewis lung carcinoma, T/C %
Experiment: NCI In Vivo Anticancer Drug Screen. Data for tumor model Lewis Lung Carcinoma (subcutaneous) in B6D2F1 (BDF1) mice
Method in brief: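 Transplanted tumors grown in mice; compound vs vehicle dosing; endpoint survival or tumor size; ratio T/C.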

[1] = T/C endpoint: median survival time, dose: 25.0 mg/kg/injection, schedule: Q01DX009 (ip), vehicle: Klucel (hydroxypropylcellulose) (HPC), higher T/C = longer survival
[2] = T/C endpoint: median survival time, dose: 6.0 mg/kg/injection, schedule: Q01DX009 (ip), vehicle: saline with Tween-80, higher T/C = longer survival
[3] = T/C endpoint: mean tumor weight, dose: 2.0 mg/kg/injection, schedule: Q01DX011 (ip), vehicle: carboxymethylcellulose (CMC), higher T/C = larger tumour

Compound: C=C1C(=O)OC2C3OC(C)(CCC(O)C3COC(C)=O)CC(OC(=O)/C(=C/C)COC(C)=O)C12 (stereo not given)
- T/C (T/C endpoint: median survival time, dose: 12.5 mg/kg/injection, schedule: Q01DX009 (ip), vehicle: Klucel (hydroxypropylcellulose) (HPC), higher T/C = longer survival): 145 % of control
- T/C [1]: 135 % of control [9 of 10 alive]

Compound: C=CC(=O)[O][Pb]([CH3])([CH3])[CH3]
- T/C (T/C endpoint: median survival time, dose: 0.75 mg/kg/injection, schedule: Q01DX009 (ip), vehicle: saline with Tween-80, higher T/C = longer survival): 130 % of control [8 of 9 alive]
- T/C (T/C endpoint: median survival time, dose: 1.5 mg/kg/injection, schedule: Q01DX009 (ip), vehicle: saline with Tween-80, higher T/C = longer survival): 133 % of control [9 of 10 alive]
- survivor count (T/C endpoint: median survival time, dose: 3.0 mg/kg/injection, schedule: Q01DX009 (ip), vehicle: saline with Tween-80, higher T/C = longer survival): 10 of 10
- survivor count [2]: 10 of 10
- survivor count (T/C endpoint: median survival time, dose: 12.0 mg/kg/injection, schedule: Q01DX009 (ip), vehicle: saline with Tween-80, higher T/C = longer survival): 4 of 10

Compound: N=C(N)NC(=N)Nc1ccc(NC(=O)Nc2ccc(Nc3c4ccccc4nc4cc([N+](=O)[O-])ccc34)cc2)cc1
- T/C (T/C endpoint: median survival time, dose: 3.13 mg/kg/injection, schedule: Q01DX009 (ip), vehicle: water, higher T/C = longer survival): 125 % of control

Compound: CN(CCC(=O)c1ccccc1)CCC(=O)c1ccccc1
- T/C (T/C endpoint: mean tumor weight, dose: 37.0 mg/kg/injection, schedule: Q01DX011 (ip), vehicle: other, evaluated on day 12, higher T/C = larger tumour): 128 % of control
- survivor count (T/C endpoint: mean tumor weight, dose: 125.0 mg/kg/injection, schedule: Q01DX011 (ip), vehicle: other, higher T/C = larger tumour): 2 of 6

Compound: COc1cc(C(=O)OC2CC34CCNC35CC(OC5(OC)C2O)c2cc3c(cc24)OCO3)ccc1O (stereo not given)
- survivor count [3]: 1 of 4

Compound: CC1=C(/C=C/C(C)=C/C=C/C(C)=C/C(=O)O)C(C)(C)CCC1
- T/C (T/C endpoint: median survival time, dose: 1.0 mg/kg/injection, schedule: Q01DX005 (ip), vehicle: saline with Tween-80, evaluated on day 60, higher T/C = longer survival): 95, 101, 105 % of control
- T/C (T/C endpoint: median survival time, dose: 1.0 mg/kg/injection, schedule: Q01DX005 (ip), vehicle: saline with Tween-80, evaluated on day 65, higher T/C = longer survival): 121 % of control
- T/C (T/C endpoint: median survival time, dose: 2.0 mg/kg/injection, schedule: Q01DX005 (ip), vehicle: saline with Tween-80, evaluated on day 60, higher T/C = longer survival): 93, 105, 106 % of control [9 of 10 alive]
- T/C (T/C endpoint: median survival time, dose: 2.0 mg/kg/injection, schedule: Q01DX005 (ip), vehicle: saline with Tween-80, evaluated on day 65, higher T/C = longer survival): 92 % of control
- survivor count (T/C endpoint: median survival time, dose: 3.12 mg/kg/injection, schedule: Q01DX005 (ip), vehicle: saline with Tween-80, higher T/C = longer survival): 10 of 10
- T/C (T/C endpoint: median survival time, dose: 4.0 mg/kg/injection, schedule: Q01DX005 (ip), vehicle: saline with Tween-80, evaluated on day 60, higher T/C = longer survival): 91, 107, 110 % of control
- T/C (T/C endpoint: median survival time, dose: 4.0 mg/kg/injection, schedule: Q01DX005 (ip), vehicle: saline with Tween-80, evaluated on day 65, higher T/C = longer survival): 103 % of control
- survivor count (T/C endpoint: median survival time, dose: 4.0 mg/kg/injection, schedule: Q01DX009 (ip), vehicle: saline with Tween-80, higher T/C = longer survival): 10 of 10
- T/C (T/C endpoint: median survival time, dose: 8.0 mg/kg/injection, schedule: Q01DX005 (ip), vehicle: saline with Tween-80, evaluated on day 60, higher T/C = longer survival): 95 and 107 % of control (2×)
- T/C (T/C endpoint: median survival time, dose: 8.0 mg/kg/injection, schedule: Q01DX005 (ip), vehicle: saline with Tween-80, evaluated on day 65, higher T/C = longer survival): 108 % of control
- survivor count (T/C endpoint: median survival time, dose: 12.5 mg/kg/injection, schedule: Q01DX005 (ip), vehicle: saline with Tween-80, higher T/C = longer survival): 10 of 10
- T/C (T/C endpoint: median survival time, dose: 16.0 mg/kg/injection, schedule: Q01DX005 (ip), vehicle: saline with Tween-80, evaluated on day 60, higher T/C = longer survival): 103 (2×) and 118 % of control
- T/C (T/C endpoint: median survival time, dose: 16.0 mg/kg/injection, schedule: Q01DX005 (ip), vehicle: saline with Tween-80, evaluated on day 65, higher T/C = longer survival): 93 % of control
- survivor count (T/C endpoint: median survival time, dose: 25.0 mg/kg/injection, schedule: Q01DX005 (ip), vehicle: saline with Tween-80, higher T/C = longer survival): 10 of 10
- T/C (T/C endpoint: median survival time, dose: 32.0 mg/kg/injection, schedule: Q01DX005 (ip), vehicle: saline with Tween-80, evaluated on day 60, higher T/C = longer survival): 104, 106 [9 of 10 alive], 110, 150 % of control
- T/C (T/C endpoint: median survival time, dose: 32.0 mg/kg/injection, schedule: Q01DX005 (ip), vehicle: saline with Tween-80, evaluated on day 65, higher T/C = longer survival): 104 % of control
- survivor count (T/C endpoint: median survival time, dose: 50.0 mg/kg/injection, schedule: Q01DX005 (ip), vehicle: saline with Tween-80, higher T/C = longer survival): 10 of 10
- T/C (T/C endpoint: median survival time, dose: 64.0 mg/kg/injection, schedule: Q01DX005 (ip), vehicle: saline with Tween-80, evaluated on day 60, higher T/C = longer survival): 97, 99, 102, 145 % of control [9 of 10 alive]
- T/C (T/C endpoint: median survival time, dose: 64.0 mg/kg/injection, schedule: Q01DX005 (ip), vehicle: saline with Tween-80, evaluated on day 65, higher T/C = longer survival): 93 % of control
- survivor count (T/C endpoint: median survival time, dose: 64.0 mg/kg/injection, schedule: Q01DX009 (ip), vehicle: saline with Tween-80, higher T/C = longer survival): 10 of 10
- survivor count (T/C endpoint: median survival time, dose: 100.0 mg/kg/injection, schedule: Q01DX005 (ip), vehicle: saline with Tween-80, higher T/C = longer survival): 10 of 10
- T/C (T/C endpoint: median survival time, dose: 128.0 mg/kg/injection, schedule: Q01DX005 (ip), vehicle: saline with Tween-80, evaluated on day 60, higher T/C = longer survival): 107 and 110 % of control
- T/C (T/C endpoint: median survival time, dose: 128.0 mg/kg/injection, schedule: Q01DX005 (ip), vehicle: saline with Tween-80, evaluated on day 65, higher T/C = longer survival): 118 % of control
- survivor count (T/C endpoint: median survival time, dose: 128.0 mg/kg/injection, schedule: Q01DX005 (ip), vehicle: saline with Tween-80, higher T/C = longer survival): 7 of 10 and 10 of 10
- survivor count (T/C endpoint: median survival time, dose: 128.0 mg/kg/injection, schedule: Q01DX009 (ip), vehicle: saline with Tween-80, higher T/C = longer survival): 10 of 10

Compound: O=C1NC2C(NC(=O)N2Cl)N1Cl (stereo not given)
- survivor count (T/C endpoint: mean tumor weight, dose: 80.0 mg/kg/injection, schedule: Q01DX011 (ip), vehicle: saline, higher T/C = larger tumour): 2 of 6
- survivor count (T/C endpoint: mean tumor weight, dose: 160.0 mg/kg/injection, schedule: Q01DX011 (ip), vehicle: saline, higher T/C = larger tumour): 0 of 6

Compound: CC1OC(=O)C(C(C)C)NC(=O)C(C(C)C)OC(=O)C(C(C)C)NC(=O)C(C)OC(=O)C(C(C)C)NC(=O)C(C(C)C)OC(=O)C(C(C)C)NC(=O)C(C)OC(=O)C(C(C)C)NC(=O)C(C(C)C)OC(=O)C(C(C)C)NC1=O (stereo not given)
- survivor count (T/C endpoint: median survival time, dose: 2.5 mg/kg/injection, schedule: Q01DX009 (ip), vehicle: saline with Tween-80, higher T/C = longer survival): 9 of 10
- survivor count (T/C endpoint: median survival time, dose: 5.0 mg/kg/injection, schedule: Q01DX009 (ip), vehicle: saline with Tween-80, higher T/C = longer survival): 10 of 10
- T/C [2]: 125 % of control
- survivor count (T/C endpoint: median survival time, dose: 10.0 mg/kg/injection, schedule: Q01DX009 (ip), vehicle: saline with Tween-80, higher T/C = longer survival): 10 of 10
- survivor count (T/C endpoint: median survival time, dose: 20.0 mg/kg/injection, schedule: Q01DX009 (ip), vehicle: saline with Tween-80, higher T/C = longer survival): 0 of 10
- survivor count (T/C endpoint: median survival time, dose: 40.0 mg/kg/injection, schedule: Q01DX009 (ip), vehicle: saline with Tween-80, higher T/C = longer survival): 0 of 10

Compound: O=C(O)O.[Cd]
- T/C (T/C endpoint: mean tumor weight, dose: 1.0 mg/kg/injection, schedule: Q01DX011 (ip), vehicle: carboxymethylcellulose (CMC), evaluated on day 12, higher T/C = larger tumour): 127 % of control [5 of 6 alive]
- survivor count [3]: 3 of 6
- survivor count (T/C endpoint: mean tumor weight, dose: 5.0 mg/kg/injection, schedule: Q01DX011 (ip), vehicle: carboxymethylcellulose (CMC), higher T/C = larger tumour): 2 of 6
- survivor count (T/C endpoint: mean tumor weight, dose: 10.0 mg/kg/injection, schedule: Q01DX011 (ip), vehicle: carboxymethylcellulose (CMC), higher T/C = larger tumour): 1 of 6
- survivor count (T/C endpoint: mean tumor weight, dose: 25.0 mg/kg/injection, schedule: Q01DX011 (ip), vehicle: carboxymethylcellulose (CMC), higher T/C = larger tumour): 1 of 6

Compound: NC(Cc1cc([N+](=O)[O-])ccc1CN(CCCl)CCCl)C(=O)O (stereo not given)
- survivor count (T/C endpoint: median survival time, dose: 4.0 mg/kg/injection, schedule: Q01DX009 (ip), vehicle: Klucel (hydroxypropylcellulose) (HPC), higher T/C = longer survival): 10 of 10
- survivor count (T/C endpoint: median survival time, dose: 8.0 mg/kg/injection, schedule: Q01DX009 (ip), vehicle: Klucel (hydroxypropylcellulose) (HPC), higher T/C = longer survival): 10 of 10
- survivor count (T/C endpoint: median survival time, dose: 25.0 mg/kg/injection, schedule: Q01DX001 (ip), vehicle: Klucel (hydroxypropylcellulose) (HPC), higher T/C = longer survival): 6 of 10

Compound: O=NN(CCCl)C(=O)Nc1cc2c3ccccc3ccc2c2ccccc12
- survivor count [1]: 10 of 10
- survivor count (T/C endpoint: median survival time, dose: 50.0 mg/kg/injection, schedule: Q01DX009 (ip), vehicle: Klucel (hydroxypropylcellulose) (HPC), higher T/C = longer survival): 10 of 10
- survivor count (T/C endpoint: median survival time, dose: 100.0 mg/kg/injection, schedule: Q01DX009 (ip), vehicle: Klucel (hydroxypropylcellulose) (HPC), higher T/C = longer survival): 10 of 10
- survivor count (T/C endpoint: median survival time, dose: 200.0 mg/kg/injection, schedule: Q01DX009 (ip), vehicle: Klucel (hydroxypropylcellulose) (HPC), higher T/C = longer survival): 9 of 10
- survivor count (T/C endpoint: median survival time, dose: 400.0 mg/kg/injection, schedule: Q01DX009 (ip), vehicle: Klucel (hydroxypropylcellulose) (HPC), higher T/C = longer survival): 9 of 10

Compound: C=C[C@]1(C)C=C2CC[C@@H]3[C@](C)(CCC[C@@]3(C)C(=O)O)[C@H]2CC1
- survivor count (T/C endpoint: mean tumor weight, dose: 500.0 mg/kg/injection, schedule: Q01DX011 (ip), vehicle: saline, higher T/C = larger tumour): 0 of 6

Compound: CNNCc1ccc(C(=O)NC(C)C)cc1
- survivor count (T/C endpoint: median survival time, dose: 100.0 mg/kg/injection, schedule: Q08HX024 (ip), vehicle: saline, higher T/C = longer survival): 9 of 10
- survivor count (T/C endpoint: median survival time, dose: 200.0 mg/kg/injection, schedule: Q08HX024 (ip), vehicle: saline, higher T/C = longer survival): 9 of 10
